Most values lie at the floor of the assay. Slopes are relative: functional sequences can read slightly below zero.

The subject of the data set is Saccharomyces cerevisiae PS128 hsf1 delta, HSF1(1-493) fusion. Put plainly: growth estimate (transactivation domain function in HSF1 fusion, heat-shock survival) (a.u. (slope of normalised read count over time)); higher = stronger growth at 37°C, i.e. more transactivation activity. Particulars: library: random library.
For the substance FPRSCKRGMSRFSAVRRFAC, the growth estimate was < -0.25.

Regarding FRIVRPLKLWTCYMGDHVRE, the growth estimate was < -0.25. With GGLDVRVVRYQILHRD, the growth estimate is < -0.25. Turning to SGYAHPCCTPKLTILATS, the growth estimate is < -0.25. On to HVIIPY, for which the growth estimate was < -0.25. Regarding RLYKSHEHSSNRQTGAVSAL, the growth estimate was < -0.25.

As to VVADW, the growth estimate was -0.0148. Take PNIKDRARTSSMGTSTAMSN: the growth estimate is < -0.25.

On to SGWPGTGFRGSNGPAILFRC, for which the growth estimate was < -0.25. Regarding NHQNPYVQSTLQSFQNQLAV, the growth estimate was < -0.25. As to GVEESSGWGVIYLARIGLPN, the growth estimate was < -0.25.

Turning to ITVPYKIAAKTVKRYVRFSL, the growth estimate is < -0.25. Next, APVGHKKVPPE: < -0.25; AVLKQMDGVRCQRRR: < -0.25.

For the substance DMKHEGAG, the growth estimate is < -0.25. Regarding KRRPGRYGRFGLPRLDGNTR, the growth estimate was < -0.25. For RCVPVWGVPCRRA, the growth estimate was < -0.25.

Take TRSTFQLFYPALPELRCC: the growth estimate is < -0.25. On to VQGMIGATSSAIDSALHRC, for which the growth estimate is < -0.25. Next, DGSMKQTQPTLW: < -0.25. Next, SAYGTFLAEVILR: < -0.25. Regarding ELSIAMRWGGYGCRAHGMYH, the growth estimate was -0.246. As for TVCWAHPTFRCRHVR, the figure is < -0.25. In the case of PGWFRVVIQ, the growth estimate was < -0.25.

In the case of SVKVNPEDIVSVGGCTLYTR, the growth estimate is < -0.25.

Turning to VPKSECGHVVQRFGRFWQ, the growth estimate is < -0.25.

As for CPFTELIPFRWGLCQNLTRE, the growth estimate was < -0.25. Turning to MVH, the growth estimate was < -0.25. On to QSRHSELEADILTQTVDATD, for which the growth estimate is -0.223.

Regarding LYVRIYTHVHAVPRRSFSWA, the growth estimate is < -0.25.

Turning to RVNNGSARMAAFRVAWVNCV, the growth estimate is < -0.25. As for GLEP, the figure is < -0.25; as for SLQSI, -0.182; as for RWCLTAIDGSFALTHPYFPA, < -0.25. As for AYRGESMVVVSEWHAACTPG, the figure is < -0.25; as for SPSMIAGAGLDRRIIHCRHI, < -0.25; as for GHK, < -0.25. With STVELYDYGNGKAGTSYVFT, the growth estimate was < -0.25.

On to FCCLEVISPPEARWPLTLCQ, for which the growth estimate is < -0.25. Next, CWFSVAWGAVGGHRFSQRH: < -0.25.

Take TVTELLHRVREDAYRKTLAD: the growth estimate is < -0.25.

With ITVTTANWCTTSFPASGSVH, the growth estimate is < -0.25. For PEHLGNPHAQI, the growth estimate is < -0.25.

Turning to RNHHGLAVRTLQDLDAHRHA, the growth estimate was < -0.25. GPGNHLGLPPFRGRGSRDAQ: the growth estimate is < -0.25.

Take LSGY: the growth estimate was < -0.25. With PRPFGALRSE, the growth estimate is < -0.25.

Take LRVTTGGPWGS: the growth estimate was < -0.25. Next, LRTPGRDSYYSNPTIVFCHF: < -0.25; KALVSRQ: < -0.25; KPLIRRLVRASAMGAVPMSG: < -0.25. For the substance DLVGVSRIGGGPPWR, the growth estimate was < -0.25. As for PPLCY, the figure is < -0.25. Take LCVSSGLMSSPHDGFTRIGM: the growth estimate is -0.209. As for DRGCK, the growth estimate was < -0.25. Next, FLNVGRWRGYYRAQARTPDN: < -0.25. As to MSQLSILSEIPISACQGGWH, the growth estimate is < -0.25. VLWVEVSTSIQNKILG: the growth estimate was < -0.25. On to PQTR, for which the growth estimate is < -0.25. As for TGHY, the growth estimate was < -0.25. Regarding EFQRPVVLRMGTSRVHKSVS, the growth estimate is < -0.25. Next, CMLQGATSIAACVRLFKAYS: < -0.25; PRALCRRVHNRIRKDSCLIY: < -0.25.

These data come from the supplement of paper PMC5949888.
